From the supplement of paper PMC10849652
The list shows a part of the results.

Chains of the proteins cited; added tags and fusions are not shown. Lines headed by an entry give the natural chain unless they say otherwise; changes in a name come on top.
UniProt P50583: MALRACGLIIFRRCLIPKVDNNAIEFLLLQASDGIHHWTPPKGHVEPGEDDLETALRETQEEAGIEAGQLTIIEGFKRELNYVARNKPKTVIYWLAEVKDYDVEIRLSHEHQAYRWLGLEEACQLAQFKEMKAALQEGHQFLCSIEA
UniProt Q8IVD9: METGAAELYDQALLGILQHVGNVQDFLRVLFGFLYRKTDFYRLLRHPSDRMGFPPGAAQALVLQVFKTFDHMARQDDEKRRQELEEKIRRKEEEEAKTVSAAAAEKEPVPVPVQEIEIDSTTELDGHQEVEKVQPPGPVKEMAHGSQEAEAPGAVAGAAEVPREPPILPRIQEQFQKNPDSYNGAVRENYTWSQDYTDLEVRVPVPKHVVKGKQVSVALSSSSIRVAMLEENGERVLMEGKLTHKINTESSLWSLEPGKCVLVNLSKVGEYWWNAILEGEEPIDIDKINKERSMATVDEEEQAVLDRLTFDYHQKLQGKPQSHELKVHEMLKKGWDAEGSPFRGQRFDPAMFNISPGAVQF
UniProt P49757: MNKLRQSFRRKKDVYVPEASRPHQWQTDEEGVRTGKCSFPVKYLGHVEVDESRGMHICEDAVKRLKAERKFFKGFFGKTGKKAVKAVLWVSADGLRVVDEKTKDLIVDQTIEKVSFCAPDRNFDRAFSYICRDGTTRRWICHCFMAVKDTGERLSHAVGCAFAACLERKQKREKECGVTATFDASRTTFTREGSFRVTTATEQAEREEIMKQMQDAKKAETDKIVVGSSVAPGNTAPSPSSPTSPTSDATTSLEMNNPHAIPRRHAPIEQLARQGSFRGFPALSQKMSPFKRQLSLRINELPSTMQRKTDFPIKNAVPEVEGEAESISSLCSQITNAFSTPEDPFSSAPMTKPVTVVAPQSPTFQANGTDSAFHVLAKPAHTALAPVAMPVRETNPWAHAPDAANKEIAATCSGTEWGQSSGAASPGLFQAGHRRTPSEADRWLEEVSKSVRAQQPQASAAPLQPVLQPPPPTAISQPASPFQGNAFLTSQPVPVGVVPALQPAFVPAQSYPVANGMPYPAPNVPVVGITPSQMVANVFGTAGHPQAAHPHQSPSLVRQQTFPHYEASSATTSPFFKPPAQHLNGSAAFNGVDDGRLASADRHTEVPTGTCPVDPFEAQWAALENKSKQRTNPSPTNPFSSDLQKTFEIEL
UniProt O60502: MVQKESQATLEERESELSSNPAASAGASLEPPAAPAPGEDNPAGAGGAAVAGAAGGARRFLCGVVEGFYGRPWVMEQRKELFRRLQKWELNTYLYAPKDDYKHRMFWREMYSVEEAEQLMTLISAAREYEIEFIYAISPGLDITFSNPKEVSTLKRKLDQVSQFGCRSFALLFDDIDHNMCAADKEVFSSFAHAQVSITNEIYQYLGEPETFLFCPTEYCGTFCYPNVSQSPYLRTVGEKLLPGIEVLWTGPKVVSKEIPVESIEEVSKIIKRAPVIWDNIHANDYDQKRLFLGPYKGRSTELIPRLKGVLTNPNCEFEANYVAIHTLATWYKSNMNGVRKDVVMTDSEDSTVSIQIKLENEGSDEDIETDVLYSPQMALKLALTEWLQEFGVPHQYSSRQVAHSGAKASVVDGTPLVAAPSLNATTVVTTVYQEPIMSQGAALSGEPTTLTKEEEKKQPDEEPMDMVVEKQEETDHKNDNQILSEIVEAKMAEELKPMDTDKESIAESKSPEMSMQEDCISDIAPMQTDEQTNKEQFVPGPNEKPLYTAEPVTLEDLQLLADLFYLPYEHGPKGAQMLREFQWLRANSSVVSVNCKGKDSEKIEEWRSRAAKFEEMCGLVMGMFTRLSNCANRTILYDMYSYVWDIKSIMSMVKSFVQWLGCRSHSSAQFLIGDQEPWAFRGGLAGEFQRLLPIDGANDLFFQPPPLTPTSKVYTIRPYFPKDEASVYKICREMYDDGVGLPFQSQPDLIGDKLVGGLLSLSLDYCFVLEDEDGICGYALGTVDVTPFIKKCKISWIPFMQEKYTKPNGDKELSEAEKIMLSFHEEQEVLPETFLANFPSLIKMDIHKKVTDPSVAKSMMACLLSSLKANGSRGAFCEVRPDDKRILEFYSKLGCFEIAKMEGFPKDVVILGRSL
UniProt Q9H6K4: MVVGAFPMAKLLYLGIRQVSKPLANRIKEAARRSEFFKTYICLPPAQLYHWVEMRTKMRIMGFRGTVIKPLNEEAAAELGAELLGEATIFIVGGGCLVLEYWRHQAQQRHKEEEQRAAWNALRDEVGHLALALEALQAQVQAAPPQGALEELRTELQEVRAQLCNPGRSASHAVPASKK
UniProt Q96BN8, whole entry, looked up: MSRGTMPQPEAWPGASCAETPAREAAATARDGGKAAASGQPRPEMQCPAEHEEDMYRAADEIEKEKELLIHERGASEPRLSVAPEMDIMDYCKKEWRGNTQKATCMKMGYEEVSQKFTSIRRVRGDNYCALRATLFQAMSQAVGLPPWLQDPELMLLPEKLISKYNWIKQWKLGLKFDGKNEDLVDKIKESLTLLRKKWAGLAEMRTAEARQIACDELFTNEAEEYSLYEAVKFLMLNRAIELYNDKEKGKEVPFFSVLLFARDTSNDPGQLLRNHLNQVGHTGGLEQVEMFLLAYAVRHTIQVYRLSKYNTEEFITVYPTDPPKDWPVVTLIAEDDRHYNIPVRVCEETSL
UniProt Q5TFE4: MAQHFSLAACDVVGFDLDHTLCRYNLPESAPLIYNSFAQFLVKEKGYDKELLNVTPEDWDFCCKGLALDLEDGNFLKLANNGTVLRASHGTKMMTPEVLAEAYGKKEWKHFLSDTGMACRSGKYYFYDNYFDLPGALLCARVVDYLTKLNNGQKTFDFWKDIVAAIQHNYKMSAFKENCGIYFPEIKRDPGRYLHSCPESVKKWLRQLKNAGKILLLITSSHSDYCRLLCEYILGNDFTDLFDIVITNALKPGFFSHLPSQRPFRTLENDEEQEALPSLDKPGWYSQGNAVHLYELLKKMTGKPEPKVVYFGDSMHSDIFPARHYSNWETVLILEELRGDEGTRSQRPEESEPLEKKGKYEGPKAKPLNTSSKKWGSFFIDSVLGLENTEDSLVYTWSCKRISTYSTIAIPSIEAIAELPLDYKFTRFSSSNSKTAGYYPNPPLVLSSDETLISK
UniProt Q9BRP4: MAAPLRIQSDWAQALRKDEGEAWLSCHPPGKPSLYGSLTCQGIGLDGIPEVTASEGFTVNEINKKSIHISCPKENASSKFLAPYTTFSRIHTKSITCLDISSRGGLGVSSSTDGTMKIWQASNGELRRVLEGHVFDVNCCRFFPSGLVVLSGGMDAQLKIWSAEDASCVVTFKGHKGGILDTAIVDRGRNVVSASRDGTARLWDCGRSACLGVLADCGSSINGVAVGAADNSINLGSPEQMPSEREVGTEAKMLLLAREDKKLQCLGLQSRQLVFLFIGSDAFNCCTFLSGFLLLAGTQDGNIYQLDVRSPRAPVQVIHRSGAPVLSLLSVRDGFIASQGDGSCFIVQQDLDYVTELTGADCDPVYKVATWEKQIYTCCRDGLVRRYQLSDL
UniProt Q9BW27: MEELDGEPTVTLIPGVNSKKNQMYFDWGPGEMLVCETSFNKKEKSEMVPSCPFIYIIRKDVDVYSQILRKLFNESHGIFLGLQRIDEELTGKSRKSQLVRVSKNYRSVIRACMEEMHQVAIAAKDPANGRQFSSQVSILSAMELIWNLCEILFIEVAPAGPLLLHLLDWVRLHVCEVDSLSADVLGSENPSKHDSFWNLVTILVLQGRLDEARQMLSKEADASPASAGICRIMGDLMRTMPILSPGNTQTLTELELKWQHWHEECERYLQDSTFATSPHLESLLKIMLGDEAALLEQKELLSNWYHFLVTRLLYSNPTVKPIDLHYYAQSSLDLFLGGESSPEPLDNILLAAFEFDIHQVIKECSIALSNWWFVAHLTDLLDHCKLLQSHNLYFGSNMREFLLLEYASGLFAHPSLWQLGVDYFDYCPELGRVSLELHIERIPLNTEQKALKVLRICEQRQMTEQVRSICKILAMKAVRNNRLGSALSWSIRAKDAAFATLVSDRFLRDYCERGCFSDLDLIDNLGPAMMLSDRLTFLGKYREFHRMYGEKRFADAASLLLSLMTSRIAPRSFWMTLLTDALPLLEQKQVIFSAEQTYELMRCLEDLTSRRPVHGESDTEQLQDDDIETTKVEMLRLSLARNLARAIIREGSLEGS
UniProt Q12769: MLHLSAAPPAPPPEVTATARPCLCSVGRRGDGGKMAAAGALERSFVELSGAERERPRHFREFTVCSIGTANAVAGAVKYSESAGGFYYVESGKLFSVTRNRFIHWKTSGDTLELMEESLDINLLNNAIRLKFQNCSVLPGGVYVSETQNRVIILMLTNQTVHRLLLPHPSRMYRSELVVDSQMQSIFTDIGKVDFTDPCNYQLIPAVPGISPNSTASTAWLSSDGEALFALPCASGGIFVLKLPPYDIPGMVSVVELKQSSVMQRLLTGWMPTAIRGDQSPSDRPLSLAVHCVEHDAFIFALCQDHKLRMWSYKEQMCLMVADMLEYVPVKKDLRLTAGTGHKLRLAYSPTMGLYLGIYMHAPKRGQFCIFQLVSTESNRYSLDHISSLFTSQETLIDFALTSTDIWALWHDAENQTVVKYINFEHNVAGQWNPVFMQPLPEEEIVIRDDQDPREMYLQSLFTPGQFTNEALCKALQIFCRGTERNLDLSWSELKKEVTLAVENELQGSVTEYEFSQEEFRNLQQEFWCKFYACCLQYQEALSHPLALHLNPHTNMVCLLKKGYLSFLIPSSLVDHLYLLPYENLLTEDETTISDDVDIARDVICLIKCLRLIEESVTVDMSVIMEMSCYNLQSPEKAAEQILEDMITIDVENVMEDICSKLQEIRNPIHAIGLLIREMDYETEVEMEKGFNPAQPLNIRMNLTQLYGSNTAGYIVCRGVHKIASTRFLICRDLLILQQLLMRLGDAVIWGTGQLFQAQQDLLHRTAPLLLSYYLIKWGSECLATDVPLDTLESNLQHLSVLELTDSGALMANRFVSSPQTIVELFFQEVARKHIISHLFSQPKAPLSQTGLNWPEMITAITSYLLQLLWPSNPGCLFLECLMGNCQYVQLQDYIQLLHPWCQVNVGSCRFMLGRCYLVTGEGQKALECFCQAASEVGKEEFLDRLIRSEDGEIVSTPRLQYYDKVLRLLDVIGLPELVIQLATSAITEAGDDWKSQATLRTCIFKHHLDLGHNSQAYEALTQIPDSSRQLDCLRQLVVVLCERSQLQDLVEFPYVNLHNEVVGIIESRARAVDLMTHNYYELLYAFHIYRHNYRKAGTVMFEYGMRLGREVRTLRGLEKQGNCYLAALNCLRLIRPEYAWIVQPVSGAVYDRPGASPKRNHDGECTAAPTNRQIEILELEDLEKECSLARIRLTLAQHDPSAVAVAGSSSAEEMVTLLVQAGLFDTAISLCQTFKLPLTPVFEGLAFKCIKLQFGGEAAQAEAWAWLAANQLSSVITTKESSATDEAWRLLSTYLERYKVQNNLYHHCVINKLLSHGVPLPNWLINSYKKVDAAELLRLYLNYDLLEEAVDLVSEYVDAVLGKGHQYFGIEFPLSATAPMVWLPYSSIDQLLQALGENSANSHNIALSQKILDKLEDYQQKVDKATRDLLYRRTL
UniProt Q9NTK5, whole entry, looked up: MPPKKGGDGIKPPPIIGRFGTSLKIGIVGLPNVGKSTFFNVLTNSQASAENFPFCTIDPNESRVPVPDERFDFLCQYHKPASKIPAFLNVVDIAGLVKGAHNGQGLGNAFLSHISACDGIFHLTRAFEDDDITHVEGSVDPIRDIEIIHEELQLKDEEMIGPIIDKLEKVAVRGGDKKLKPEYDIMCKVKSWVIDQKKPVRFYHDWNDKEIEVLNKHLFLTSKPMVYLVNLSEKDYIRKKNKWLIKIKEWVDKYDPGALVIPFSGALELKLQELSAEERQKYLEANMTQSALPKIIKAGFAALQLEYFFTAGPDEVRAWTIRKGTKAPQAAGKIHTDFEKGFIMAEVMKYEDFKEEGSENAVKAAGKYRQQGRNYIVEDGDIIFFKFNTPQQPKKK
UniProt Q96CV9, whole entry, looked up: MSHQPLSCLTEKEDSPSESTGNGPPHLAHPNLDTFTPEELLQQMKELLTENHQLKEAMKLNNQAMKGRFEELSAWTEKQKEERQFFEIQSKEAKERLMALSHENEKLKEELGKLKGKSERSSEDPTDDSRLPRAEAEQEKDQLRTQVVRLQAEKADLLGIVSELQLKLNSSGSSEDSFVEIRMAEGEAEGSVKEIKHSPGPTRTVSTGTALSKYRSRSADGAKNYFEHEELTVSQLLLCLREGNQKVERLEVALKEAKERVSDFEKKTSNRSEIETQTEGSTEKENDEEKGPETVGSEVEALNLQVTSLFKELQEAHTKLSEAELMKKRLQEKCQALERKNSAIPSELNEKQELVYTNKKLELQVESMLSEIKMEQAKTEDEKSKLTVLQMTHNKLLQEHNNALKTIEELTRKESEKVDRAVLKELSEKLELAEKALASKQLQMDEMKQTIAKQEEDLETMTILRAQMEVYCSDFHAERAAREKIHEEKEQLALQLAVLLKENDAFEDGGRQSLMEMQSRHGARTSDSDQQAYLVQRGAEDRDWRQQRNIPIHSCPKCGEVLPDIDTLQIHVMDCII

What was measured:
Assay in all cases: log2 fold change, soluble protein after heating vs DMSO (PISA); higher = thermal stabilisation; K562 cells, 10 uM, 30 min; active = over 0.2 and 3.5 SD of the protein, either way, in both replicates (recomputed)
[1] = compound: C#Cc1cccc(Nc2ncnc3cc(OCCOC)c(OCCOC)cc23)c1 [erlotinib]
Procedure, shortened: (§1)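 Aliquots of K562 cells (2×10^6 cells/mL) treated with 10 μM compound for 30 min were heated for 3 min over 48°C-58°C. After pooling and extraction in PBS with 0.5% NP-40 at 4°C, soluble protein from a 21,000xg, 90 min spin was quantified by TMTpro 16plex LC-MS/MS with channel sums equalised. Thermal stability is expressed against control samples, from duplicates, as a log2 fold change.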

[2] = compound: C/C(=N\NC(=O)C1=CC(=CC=C1)S(=O)(=O)N2CCOCC2)/C3=C(C=CC(=C3)Cl)O
Procedure, shortened: as §1

[3] = compound: C1=CC(=C(C=C1Cl)C2=NC3=NC=CN=C3C(=N2)NC4=CC=NC=C4)F
Procedure, shortened: as §1

[4] = compound: C1=CC(=CC=C1C2=NC3=C(N2)C=C(C=C3)C(=O)N)OC4=CC=C(C=C4)Cl
Procedure, shortened: as §1

[5] = compound: C1=CC2=C(C=CC(=C2)/C=C\3/C(=O)NC(=NCC4=CC=CS4)S3)N=C1
Procedure, shortened: as §1

[6] = compound: C1=CC2=NC=CN=C2C=C1/C=C/3\C(=O)NC(=O)S3
Procedure, shortened: as §1

[7] = compound: C1=CC=C(C=C1)C2=NC(=C(N2)C3=CC=NC=C3)C4=CC(=C(C=C4)Cl)O
Procedure, shortened: as §1

[8] = compound: C1=CC=C2C(=C1)C3=NNC4=CC=CC(=C43)C2=O
Procedure, shortened: as §1

[9] = compound: C1CCN(C1)C(=O)NC2=CC=CC(=C2)NC3=NC=C(C(=N3)NCCC4=CN=CN4)Br
Procedure, shortened: as §1

[10] = compound: C1CN(CCC1(CC2=CC=C(C=C2)Cl)N)C3=NC=NC4=C3C=CN4
Procedure, shortened: as §1

Row | Target | log2 fold change [1] | log2 fold change [2] | log2 fold change [3] | log2 fold change [4] | log2 fold change [5] | log2 fold change [6] | log2 fold change [7] | log2 fold change [8] | log2 fold change [9] | log2 fold change [10]
1 | NUP88 (UniProt Q99567) | inactive: 0.018 | inactive: 0.021 | inactive: -0.09 | inactive: -0.003 | inactive: -0.005 | inactive: 0.039 | inactive: -0.091 | inactive: 0 | inactive: 0.012 | inactive: -0.103
2 | NUDT1 (UniProt P36639) | inactive: 0.164 | inactive: -0.018 | inactive: 0.135 | inactive: -0.068 | inactive: 0 | inactive: -0.032 | inactive: 0.055 | inactive: 0.187 | inactive: -0.009 | active: 1.01
3 | OGT (UniProt O15294) | inactive: -0.033 | inactive: 0.055 | inactive: 0 | inactive: 0.039 | inactive: 0.025 | inactive: -0.013 | inactive: -0.051 | inactive: -0.014 | inactive: -0.042 | inactive: 0
4 | NUDT2 (UniProt P50583) | inactive: -0.113 | inactive: 0.065 | inactive: 0.035 | inactive: 0.223 | inactive: 0.029 | inactive: 0.049 | inactive: 0.008 | inactive: 0.034 | inactive: 0.031 | inactive: -0.015
5 | OGFR (UniProt Q9NZT2) | inactive: 0.009 | inactive: 0.207 | inactive: -0.011 | inactive: 0.107 | inactive: 0.131 | inactive: -0.157 | inactive: 0.027 | inactive: -0.085 | inactive: 0.028 | inactive: -0.132
6 | NUDCD3 (UniProt Q8IVD9) | inactive: 0.037 | inactive: 0.089 | inactive: 0.038 | inactive: 0.007 | inactive: 0.025 | inactive: 0.027 | inactive: 0.024 | inactive: 0 | inactive: -0.02 | inactive: -0.029
7 | NUP42 (UniProt O15504) | inactive: -0.096 | inactive: -0.004 | inactive: -0.722 | inactive: 0.128 | inactive: -0.147 | inactive: -0.16 | inactive: -0.003 | inactive: -0.098 | inactive: 0.189 | inactive: 0.137
8 | OAT (UniProt P04181) | inactive: 0.063 | inactive: 0.099 | inactive: 0.045 | inactive: -0.091 | inactive: 0.042 | inactive: -0.151 | inactive: -0.183 | inactive: -0.001 | inactive: -0.037 | inactive: -0.023
9 | NUMB (UniProt P49757) | inactive: 0.016 | inactive: -0.012 | inactive: -0.048 | inactive: 0.018 | inactive: -0.001 | inactive: 0.044 | inactive: -0.004 | inactive: -0.009 | inactive: -0.087 | inactive: 0.021
10 | OPHN1 (UniProt O60890) | inactive: 0.022 | inactive: -0.155 | inactive: 0.101 | inactive: -0.009 | inactive: 0.24 | inactive: 0.03 | inactive: -0.007 | inactive: 0.039 | inactive: 0.044 | inactive: 0.04
11 | OXA1L (UniProt Q15070) | inactive: -0.014 | inactive: 0.029 | inactive: -0.005 | inactive: 0.012 | inactive: 0.01 | inactive: 0.021 | inactive: 0.006 | inactive: -0.029 | inactive: 0.012 | inactive: 0.043
12 | NUDT5 (UniProt Q9UKK9) | inactive: 0.024 | inactive: -0.003 | inactive: 0.075 | inactive: 0.043 | inactive: -0.066 | inactive: 0.032 | inactive: 0.086 | inactive: -0.008 | inactive: 0.029 | inactive: 0.039
13 | OGA (UniProt O60502) | inactive: 0.001 | inactive: 0.024 | inactive: 0.046 | inactive: 0.033 | inactive: 0.032 | inactive: -0.009 | inactive: -0.033 | inactive: -0.018 | inactive: -0.016 | inactive: 0.004
14 | NUP62 (UniProt P37198) | inactive: 0.06 | inactive: 0.069 | inactive: -0.003 | inactive: -0.014 | inactive: 0.027 | inactive: 0.094 | inactive: 0.004 | inactive: -0.002 | inactive: -0.055 | inactive: -0.089
15 | NSUN5 isoform 2 (UniProt Q96P11) | inactive: -0.027 | inactive: 0.121 | inactive: -0.051 | inactive: 0.029 | inactive: -0.053 | inactive: -0.069 | inactive: -0.148 | inactive: 0.114 | inactive: 0 | inactive: 0.065
16 | NUCB1 (UniProt Q02818) | inactive: -0.015 | inactive: 0.015 | inactive: 0.067 | inactive: 0 | inactive: -0.008 | inactive: 0.033 | inactive: -0.037 | inactive: -0.019 | inactive: -0.009 | inactive: 0.031
17 | NUMA1 (UniProt Q14980) | inactive: -0.03 | inactive: -0.006 | inactive: -0.109 | inactive: 0.017 | inactive: 0.02 | inactive: 0.019 | inactive: 0.031 | inactive: -0.054 | inactive: -0.055 | inactive: -0.211
18 | OPA3 (UniProt Q9H6K4) | inactive: 0.054 | inactive: -0.052 | inactive: 0.029 | inactive: 0.065 | inactive: 0.005 | inactive: -0.031 | inactive: 0.173 | inactive: -0.061 | inactive: 0.021 | inactive: 0.029
19 | NUBP2 (UniProt Q9Y5Y2) | inactive: 0.042 | inactive: 0.011 | inactive: 0.039 | inactive: 0.009 | inactive: 0.057 | inactive: 0.002 | inactive: 0.045 | inactive: -0.005 | inactive: 0.013 | inactive: 0.076
20 | OTULIN (UniProt Q96BN8) | inactive: -0.023 | inactive: 0.054 | inactive: 0.091 | inactive: -0.143 | inactive: 0.066 | inactive: 0.06 | inactive: -0.027 | inactive: 0.039 | inactive: -0.042 | inactive: -0.086
21 | NUFIP2 (UniProt Q7Z417) | inactive: -0.056 | inactive: -0.063 | inactive: -0.163 | inactive: 0.018 | inactive: -0.035 | inactive: -0.008 | inactive: -0.023 | inactive: -0.037 | inactive: 0.048 | inactive: 0.009
22 | NT5DC1 (UniProt Q5TFE4) | inactive: 0.071 | inactive: 0.001 | inactive: 0.087 | inactive: -0.019 | inactive: 0.087 | inactive: -0.008 | inactive: 0.02 | inactive: 0.02 | inactive: 0.008 | inactive: 0.028
23 | NUP210 (UniProt Q8TEM1) | inactive: 0.021 | inactive: 0.004 | inactive: 0.06 | inactive: -0.004 | inactive: 0.011 | inactive: 0.015 | inactive: -0.018 | inactive: -0.186 | inactive: -0.009 | inactive: 0.012
24 | PAAF1 (UniProt Q9BRP4) | inactive: 0.038 | inactive: 0.032 | inactive: 0.097 | inactive: 0.068 | inactive: -0.009 | inactive: 0.009 | inactive: 0.027 | inactive: 0 | inactive: 0.003 | inactive: 0.009
25 | NUP85 (UniProt Q9BW27) | inactive: 0.046 | inactive: 0.08 | inactive: 0.037 | inactive: 0.036 | inactive: 0 | inactive: 0.028 | inactive: -0.012 | inactive: -0.066 | inactive: -0.051 | inactive: 0.008
26 | NT5DC2 isoform 2 (UniProt Q9H857) | inactive: -0.051 | inactive: -0.009 | inactive: 0.07 | inactive: 0.01 | inactive: 0.042 | inactive: 0.205 | inactive: 0.02 | inactive: 0.038 | inactive: 0.013 | inactive: 0.02
27 | NUP160 (UniProt Q12769) | inactive: 0.001 | inactive: 0.022 | inactive: 0.01 | inactive: -0.024 | inactive: -0.006 | inactive: 0.045 | inactive: -0.017 | inactive: -0.091 | inactive: -0.085 | inactive: -0.025
28 | OXR1 (UniProt Q8N573) | inactive: 0.029 | inactive: 0.067 | inactive: 0.011 | inactive: 0.002 | inactive: 0.023 | inactive: 0.007 | inactive: -0.043 | inactive: -0.062 | inactive: -0.03 | inactive: 0.056
29 | OLA1 (UniProt Q9NTK5) | inactive: -0.037 | inactive: 0.046 | inactive: 0.056 | inactive: -0.015 | inactive: 0.01 | inactive: 0.01 | inactive: -0.007 | inactive: 0.018 | inactive: -0.014 | inactive: 0.019
30 | OPTN (UniProt Q96CV9) | inactive: 0.08 | inactive: -0.036 | inactive: 0.168 | inactive: -0.03 | inactive: 0.014 | inactive: 0.213 | inactive: 0.093 | inactive: -0.007 | inactive: -0.049 | inactive: 0.028

Rewritten as tab-separated lines: part of the list above.
Row	Target	log2 fold change [1]	log2 fold change [2]	log2 fold change [3]	log2 fold change [4]	log2 fold change [5]	log2 fold change [6]	log2 fold change [7]	log2 fold change [8]	log2 fold change [9]	log2 fold change [10]
11	OXA1L (UniProt Q15070)	inactive: -0.014	inactive: 0.029	inactive: -0.005	inactive: 0.012	inactive: 0.01	inactive: 0.021	inactive: 0.006	inactive: -0.029	inactive: 0.012	inactive: 0.043
12	NUDT5 (UniProt Q9UKK9)	inactive: 0.024	inactive: -0.003	inactive: 0.075	inactive: 0.043	inactive: -0.066	inactive: 0.032	inactive: 0.086	inactive: -0.008	inactive: 0.029	inactive: 0.039
